In this assay the target is Flag-CBP-1(1–1620) (C. elegans) (UniProt P34545). Briefly: co-IP; Flag- and Myc-tagged worm proteins co-expressed in HEK293 cells; lysis in 50 mM Tris pH 8.0, 150 mM NaCl, 0.5% sodium deoxycholate, 1% Triton X-100; anti-Flag (M2) agarose beads more than 2 h at 4°C; Western blot.

The chains behind the UniProt entries cited, without tags or fusion partners. Residues count along the entry.
UniProt P34545, residues 1-1620: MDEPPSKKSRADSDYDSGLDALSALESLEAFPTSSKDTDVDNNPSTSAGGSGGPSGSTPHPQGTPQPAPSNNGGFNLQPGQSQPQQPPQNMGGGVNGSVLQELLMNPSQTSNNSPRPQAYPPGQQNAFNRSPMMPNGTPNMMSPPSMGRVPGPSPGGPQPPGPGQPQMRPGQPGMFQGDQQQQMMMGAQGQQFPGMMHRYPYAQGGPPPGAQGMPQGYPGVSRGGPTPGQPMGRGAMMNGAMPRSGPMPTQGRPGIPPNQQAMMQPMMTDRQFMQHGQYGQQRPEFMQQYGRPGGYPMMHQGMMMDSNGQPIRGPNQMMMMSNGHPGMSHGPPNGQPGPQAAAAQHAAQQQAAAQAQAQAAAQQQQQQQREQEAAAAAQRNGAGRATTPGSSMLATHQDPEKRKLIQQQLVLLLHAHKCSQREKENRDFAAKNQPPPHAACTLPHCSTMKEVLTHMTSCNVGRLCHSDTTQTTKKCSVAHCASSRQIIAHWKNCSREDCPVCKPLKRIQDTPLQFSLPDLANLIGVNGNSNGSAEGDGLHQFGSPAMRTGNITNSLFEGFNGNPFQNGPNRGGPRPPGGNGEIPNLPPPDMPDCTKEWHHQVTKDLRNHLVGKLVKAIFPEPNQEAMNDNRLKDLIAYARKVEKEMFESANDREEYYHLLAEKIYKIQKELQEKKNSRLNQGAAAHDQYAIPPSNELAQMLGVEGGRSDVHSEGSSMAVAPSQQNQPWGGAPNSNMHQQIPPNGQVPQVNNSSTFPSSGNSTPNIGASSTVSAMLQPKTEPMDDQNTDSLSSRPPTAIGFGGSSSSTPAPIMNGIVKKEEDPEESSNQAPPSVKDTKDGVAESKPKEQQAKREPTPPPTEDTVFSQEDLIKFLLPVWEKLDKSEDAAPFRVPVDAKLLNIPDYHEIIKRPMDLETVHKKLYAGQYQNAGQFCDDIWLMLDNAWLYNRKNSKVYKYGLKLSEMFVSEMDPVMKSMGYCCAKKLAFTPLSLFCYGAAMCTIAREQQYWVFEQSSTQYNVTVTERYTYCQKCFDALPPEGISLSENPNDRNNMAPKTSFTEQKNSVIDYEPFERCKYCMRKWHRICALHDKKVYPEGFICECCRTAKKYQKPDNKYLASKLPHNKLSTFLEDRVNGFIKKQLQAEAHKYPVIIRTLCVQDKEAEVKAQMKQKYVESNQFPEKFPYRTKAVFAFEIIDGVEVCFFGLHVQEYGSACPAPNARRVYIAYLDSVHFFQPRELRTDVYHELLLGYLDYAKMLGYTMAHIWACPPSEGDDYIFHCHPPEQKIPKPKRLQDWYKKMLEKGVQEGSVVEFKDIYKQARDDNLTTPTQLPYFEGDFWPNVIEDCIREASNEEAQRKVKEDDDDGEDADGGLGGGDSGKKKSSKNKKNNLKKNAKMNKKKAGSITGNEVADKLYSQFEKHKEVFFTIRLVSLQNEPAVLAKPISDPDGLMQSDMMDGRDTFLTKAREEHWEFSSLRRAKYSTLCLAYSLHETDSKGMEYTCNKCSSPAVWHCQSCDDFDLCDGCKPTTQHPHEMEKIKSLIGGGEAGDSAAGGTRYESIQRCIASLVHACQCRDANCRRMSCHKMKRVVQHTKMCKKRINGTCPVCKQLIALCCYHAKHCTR
UniProt P46580: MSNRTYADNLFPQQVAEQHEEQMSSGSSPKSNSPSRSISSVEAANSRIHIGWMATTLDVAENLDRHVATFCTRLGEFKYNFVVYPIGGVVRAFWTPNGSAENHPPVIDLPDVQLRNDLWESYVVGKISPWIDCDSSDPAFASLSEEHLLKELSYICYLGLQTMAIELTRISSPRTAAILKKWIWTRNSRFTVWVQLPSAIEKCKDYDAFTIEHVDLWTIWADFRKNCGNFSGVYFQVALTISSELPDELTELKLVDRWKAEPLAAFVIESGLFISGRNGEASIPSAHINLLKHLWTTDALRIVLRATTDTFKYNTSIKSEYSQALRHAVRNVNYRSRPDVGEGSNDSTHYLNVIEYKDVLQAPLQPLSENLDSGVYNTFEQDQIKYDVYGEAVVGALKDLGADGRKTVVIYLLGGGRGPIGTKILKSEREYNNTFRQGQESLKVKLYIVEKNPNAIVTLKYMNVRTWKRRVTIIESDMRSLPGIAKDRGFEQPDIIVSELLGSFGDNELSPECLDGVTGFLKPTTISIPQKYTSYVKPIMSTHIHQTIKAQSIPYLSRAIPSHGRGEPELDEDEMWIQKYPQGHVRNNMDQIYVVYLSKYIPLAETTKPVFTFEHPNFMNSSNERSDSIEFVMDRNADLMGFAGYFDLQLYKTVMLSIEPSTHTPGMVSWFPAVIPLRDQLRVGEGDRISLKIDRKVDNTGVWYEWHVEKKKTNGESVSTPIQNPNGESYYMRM

These are yes or no findings as the source states them, for the method shown. Binding seen in cells or lysates may run through a third protein. Some results given as binding are weak or reduced against the parent protein; the word gives no strength.

Take “Myc-PRMT-5 (from UniProt P46580 1-734) (enzyme)”: the binding result is given as “binds”.
